PubChem BioAssay AID493246, Drosophila RNAi Screening Center – 2011

Screen: 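Genome-wide search for dsRNAs that reduce cell number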 (primary screen)
Cells: Drosophila Kc and S2R+ cells
Reagents: long dsRNA against Drosophila genes
Measured: 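Raw, unnormalised count of remaining cells in each well; per-plate z-scores of cell number underlie the calls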
Direction: Kc cell number and S2R+ cell number: higher = more cells remaining
Rule for the call: 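Active when the per-plate z-score of cell number is 3 or more in the direction of fewer cells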
In all, the deposit lists about 21,000 reagents; below is an unselected part of those with a known target gene and a result. In the full data, 429 (2%) got an active call. 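Values are raw and not normalised between plates; calls rest on per-plate z-scores that were not deposited.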 Unmarked entries are inactive. Reagent sequences are not shown. Not stated in the record: the amount of reagent, the time to read-out.

Rab19 [DRSC11260] — Kc cell number, rep 1: 1.61e6; Kc cell number, rep 2: 1.51e6; S2R+ cell number, rep 1: 1.22e6; S2R+ cell number, rep 2: 1.33e6
CG13921 [DRSC08390] — Kc cell number, rep 1: 1.46e6; Kc cell number, rep 2: 1.40e6; S2R+ cell number, rep 1: 1.15e6; S2R+ cell number, rep 2: 1.16e6
p53 [DRSC17024] — Kc cell number, rep 1: 1.51e6; Kc cell number, rep 2: 1.56e6; S2R+ cell number, rep 1: 1.18e6; S2R+ cell number, rep 2: 1.24e6
gl [DRSC16957] — Kc cell number, rep 1: 1.40e6; Kc cell number, rep 2: 1.54e6; S2R+ cell number, rep 1: 1.03e6; S2R+ cell number, rep 2: 1.05e6
CG1275 [DRSC08294] — Kc cell number, rep 1: 1.41e6; Kc cell number, rep 2: 1.47e6; S2R+ cell number, rep 1: 1.14e6; S2R+ cell number, rep 2: 1.22e6
CG12728 [DRSC17883] — Kc cell number, rep 1: 5.83e5; S2R+ cell number, rep 1: 9.00e5
sli [DRSC07684] — Kc cell number, rep 1: 1.62e6; Kc cell number, rep 2: 1.65e6; S2R+ cell number, rep 1: 1.17e6; S2R+ cell number, rep 2: 1.32e6
Zw10 [DRSC18793] — Kc cell number, rep 1: 5.06e5; S2R+ cell number, rep 1: 7.47e5
GstT2 [DRSC06244] — Kc cell number, rep 1: 1.62e6; Kc cell number, rep 2: 1.66e6; S2R+ cell number, rep 1: 1.33e6; S2R+ cell number, rep 2: 1.50e6
EMC4 [DRSC11638] — Kc cell number, rep 1: 1.71e6; Kc cell number, rep 2: 1.77e6; S2R+ cell number, rep 1: 1.37e6; S2R+ cell number, rep 2: 1.48e6
CG13871 [DRSC06430] — Kc cell number, rep 1: 1.74e6; Kc cell number, rep 2: 1.75e6; S2R+ cell number, rep 1: 1.35e6; S2R+ cell number, rep 2: 1.57e6
tacc [DRSC12019] — Kc cell number, rep 1: 1.55e6; Kc cell number, rep 2: 1.76e6; S2R+ cell number, rep 1: 1.26e6; S2R+ cell number, rep 2: 1.41e6
tacc [DRSC12388] — Kc cell number, rep 1: 1.44e6; Kc cell number, rep 2: 1.46e6; S2R+ cell number, rep 1: 1.54e6; S2R+ cell number, rep 2: 1.54e6
CG10104 [DRSC05964] — Kc cell number, rep 1: 1.65e6; Kc cell number, rep 2: 1.58e6; S2R+ cell number, rep 1: 1.40e6; S2R+ cell number, rep 2: 1.52e6
CG4896 [DRSC00671] — Kc cell number, rep 1: 1.42e6; Kc cell number, rep 2: 1.38e6; S2R+ cell number, rep 1: 8.08e5; S2R+ cell number, rep 2: 7.92e5
CG11619 [DRSC09849] — Kc cell number, rep 1: 1.71e6; Kc cell number, rep 2: 1.82e6; S2R+ cell number, rep 1: 1.31e6; S2R+ cell number, rep 2: 1.51e6
CG6431 [DRSC02956] — Kc cell number, rep 1: 1.58e6; Kc cell number, rep 2: 1.59e6; S2R+ cell number, rep 1: 1.18e6; S2R+ cell number, rep 2: 1.33e6
Cdk2 [DRSC16921] — Kc cell number, rep 1: 1.42e6 (active); Kc cell number, rep 2: 1.54e6; S2R+ cell number, rep 1: 6.22e5; S2R+ cell number, rep 2: 7.28e5
CG15251 (retired record) [DRSC17980] — Kc cell number, rep 1: 1.64e6; Kc cell number, rep 2: 1.53e6; S2R+ cell number, rep 1: 1.08e6; S2R+ cell number, rep 2: 1.19e6
CG6324 [DRSC19985] — Kc cell number, rep 1: 1.43e6; Kc cell number, rep 2: 1.45e6; S2R+ cell number, rep 1: 1.04e6; S2R+ cell number, rep 2: 1.16e6
Lasp [DRSC10379] — Kc cell number, rep 1: 1.30e6; Kc cell number, rep 2: 1.46e6; S2R+ cell number, rep 1: 1.15e6; S2R+ cell number, rep 2: 1.31e6
